The results in this text go back to the supplement of paper PMC6411743.

Sequences of proteins named here, by UniProt entry; tags and fusion partners are left off. A change or cut given only in a name is not applied to a line headed by its entry.
UniProt P51610: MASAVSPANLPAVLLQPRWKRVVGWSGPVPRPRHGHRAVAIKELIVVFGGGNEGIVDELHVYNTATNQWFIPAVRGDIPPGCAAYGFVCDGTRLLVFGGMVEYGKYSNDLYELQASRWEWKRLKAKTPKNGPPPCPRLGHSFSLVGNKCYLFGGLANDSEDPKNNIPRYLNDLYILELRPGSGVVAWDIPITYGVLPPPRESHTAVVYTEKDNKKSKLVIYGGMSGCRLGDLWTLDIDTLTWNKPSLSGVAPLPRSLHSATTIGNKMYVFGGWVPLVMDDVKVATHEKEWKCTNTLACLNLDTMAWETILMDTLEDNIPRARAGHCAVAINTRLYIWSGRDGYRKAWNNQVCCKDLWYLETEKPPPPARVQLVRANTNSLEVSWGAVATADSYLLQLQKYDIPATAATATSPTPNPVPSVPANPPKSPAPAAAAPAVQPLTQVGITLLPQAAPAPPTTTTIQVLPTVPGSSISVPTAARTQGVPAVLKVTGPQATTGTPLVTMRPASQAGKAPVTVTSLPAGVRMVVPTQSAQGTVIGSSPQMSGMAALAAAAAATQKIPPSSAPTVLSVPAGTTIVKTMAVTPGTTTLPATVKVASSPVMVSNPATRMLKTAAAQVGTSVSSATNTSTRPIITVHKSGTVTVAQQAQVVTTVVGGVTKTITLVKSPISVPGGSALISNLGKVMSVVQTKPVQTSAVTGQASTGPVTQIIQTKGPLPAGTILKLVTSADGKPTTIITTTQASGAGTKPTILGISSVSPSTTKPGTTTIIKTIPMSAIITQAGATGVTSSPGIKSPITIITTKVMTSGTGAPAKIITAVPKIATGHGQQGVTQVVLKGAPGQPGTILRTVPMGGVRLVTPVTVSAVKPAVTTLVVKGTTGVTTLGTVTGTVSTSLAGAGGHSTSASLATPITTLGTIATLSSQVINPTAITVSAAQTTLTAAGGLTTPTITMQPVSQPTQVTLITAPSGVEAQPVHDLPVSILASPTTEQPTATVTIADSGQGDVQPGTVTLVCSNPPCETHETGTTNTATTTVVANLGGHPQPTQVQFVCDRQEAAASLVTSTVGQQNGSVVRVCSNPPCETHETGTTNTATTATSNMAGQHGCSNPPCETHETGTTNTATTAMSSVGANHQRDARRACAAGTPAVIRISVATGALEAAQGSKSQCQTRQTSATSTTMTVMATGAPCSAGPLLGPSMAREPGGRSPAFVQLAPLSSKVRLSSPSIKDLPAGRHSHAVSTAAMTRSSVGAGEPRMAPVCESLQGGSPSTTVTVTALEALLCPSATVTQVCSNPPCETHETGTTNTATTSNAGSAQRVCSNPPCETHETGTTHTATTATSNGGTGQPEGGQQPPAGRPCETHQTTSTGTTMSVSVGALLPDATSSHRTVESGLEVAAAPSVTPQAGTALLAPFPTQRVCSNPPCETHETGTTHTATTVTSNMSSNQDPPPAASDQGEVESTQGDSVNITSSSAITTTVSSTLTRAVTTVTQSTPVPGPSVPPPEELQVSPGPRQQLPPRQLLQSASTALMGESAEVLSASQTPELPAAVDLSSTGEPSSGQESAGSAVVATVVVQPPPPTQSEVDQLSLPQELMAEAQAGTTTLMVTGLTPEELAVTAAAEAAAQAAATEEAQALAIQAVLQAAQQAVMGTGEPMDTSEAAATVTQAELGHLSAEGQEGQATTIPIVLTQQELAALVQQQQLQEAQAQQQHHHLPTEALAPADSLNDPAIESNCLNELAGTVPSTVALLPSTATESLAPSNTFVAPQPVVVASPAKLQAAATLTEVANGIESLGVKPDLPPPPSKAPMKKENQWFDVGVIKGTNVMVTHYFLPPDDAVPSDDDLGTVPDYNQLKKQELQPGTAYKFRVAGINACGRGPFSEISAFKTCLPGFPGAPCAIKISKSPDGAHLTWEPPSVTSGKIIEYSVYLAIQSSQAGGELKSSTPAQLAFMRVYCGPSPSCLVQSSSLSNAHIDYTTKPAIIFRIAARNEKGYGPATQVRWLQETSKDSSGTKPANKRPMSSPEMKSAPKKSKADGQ
UniProt Q96G01: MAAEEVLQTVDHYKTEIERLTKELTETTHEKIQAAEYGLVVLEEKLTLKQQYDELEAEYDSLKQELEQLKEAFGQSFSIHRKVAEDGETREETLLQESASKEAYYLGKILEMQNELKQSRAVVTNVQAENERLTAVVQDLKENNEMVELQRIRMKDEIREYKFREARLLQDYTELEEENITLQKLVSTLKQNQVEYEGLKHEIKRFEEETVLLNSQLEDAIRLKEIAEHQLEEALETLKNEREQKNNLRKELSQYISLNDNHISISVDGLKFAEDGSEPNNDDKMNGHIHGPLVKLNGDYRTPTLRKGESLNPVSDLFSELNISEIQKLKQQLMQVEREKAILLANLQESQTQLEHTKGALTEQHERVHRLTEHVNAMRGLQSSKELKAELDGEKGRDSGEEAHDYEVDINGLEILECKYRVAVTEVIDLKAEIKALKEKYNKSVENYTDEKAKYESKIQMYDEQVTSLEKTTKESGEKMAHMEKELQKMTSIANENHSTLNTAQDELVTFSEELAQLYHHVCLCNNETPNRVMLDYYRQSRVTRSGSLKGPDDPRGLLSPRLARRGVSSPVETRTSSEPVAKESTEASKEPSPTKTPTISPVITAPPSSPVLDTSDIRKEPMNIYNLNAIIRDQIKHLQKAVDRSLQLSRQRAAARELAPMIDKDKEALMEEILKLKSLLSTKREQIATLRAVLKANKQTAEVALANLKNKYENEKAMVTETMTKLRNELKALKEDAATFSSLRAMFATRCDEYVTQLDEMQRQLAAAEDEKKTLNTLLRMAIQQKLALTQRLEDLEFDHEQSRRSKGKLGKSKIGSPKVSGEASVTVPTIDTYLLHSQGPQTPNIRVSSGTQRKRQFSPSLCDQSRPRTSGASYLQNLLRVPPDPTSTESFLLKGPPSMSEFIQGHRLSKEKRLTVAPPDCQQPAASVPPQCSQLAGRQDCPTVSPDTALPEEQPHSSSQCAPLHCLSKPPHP
UniProt Q96IZ7: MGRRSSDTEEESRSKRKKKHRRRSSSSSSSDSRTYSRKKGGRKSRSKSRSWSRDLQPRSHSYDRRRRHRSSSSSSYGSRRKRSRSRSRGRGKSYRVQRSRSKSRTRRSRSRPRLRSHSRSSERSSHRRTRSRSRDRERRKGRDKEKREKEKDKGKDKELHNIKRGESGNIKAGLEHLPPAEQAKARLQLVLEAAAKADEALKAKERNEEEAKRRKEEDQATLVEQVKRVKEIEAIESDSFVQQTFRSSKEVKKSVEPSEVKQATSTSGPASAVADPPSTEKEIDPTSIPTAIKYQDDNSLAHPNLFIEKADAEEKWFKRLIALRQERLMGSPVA
UniProt P55196: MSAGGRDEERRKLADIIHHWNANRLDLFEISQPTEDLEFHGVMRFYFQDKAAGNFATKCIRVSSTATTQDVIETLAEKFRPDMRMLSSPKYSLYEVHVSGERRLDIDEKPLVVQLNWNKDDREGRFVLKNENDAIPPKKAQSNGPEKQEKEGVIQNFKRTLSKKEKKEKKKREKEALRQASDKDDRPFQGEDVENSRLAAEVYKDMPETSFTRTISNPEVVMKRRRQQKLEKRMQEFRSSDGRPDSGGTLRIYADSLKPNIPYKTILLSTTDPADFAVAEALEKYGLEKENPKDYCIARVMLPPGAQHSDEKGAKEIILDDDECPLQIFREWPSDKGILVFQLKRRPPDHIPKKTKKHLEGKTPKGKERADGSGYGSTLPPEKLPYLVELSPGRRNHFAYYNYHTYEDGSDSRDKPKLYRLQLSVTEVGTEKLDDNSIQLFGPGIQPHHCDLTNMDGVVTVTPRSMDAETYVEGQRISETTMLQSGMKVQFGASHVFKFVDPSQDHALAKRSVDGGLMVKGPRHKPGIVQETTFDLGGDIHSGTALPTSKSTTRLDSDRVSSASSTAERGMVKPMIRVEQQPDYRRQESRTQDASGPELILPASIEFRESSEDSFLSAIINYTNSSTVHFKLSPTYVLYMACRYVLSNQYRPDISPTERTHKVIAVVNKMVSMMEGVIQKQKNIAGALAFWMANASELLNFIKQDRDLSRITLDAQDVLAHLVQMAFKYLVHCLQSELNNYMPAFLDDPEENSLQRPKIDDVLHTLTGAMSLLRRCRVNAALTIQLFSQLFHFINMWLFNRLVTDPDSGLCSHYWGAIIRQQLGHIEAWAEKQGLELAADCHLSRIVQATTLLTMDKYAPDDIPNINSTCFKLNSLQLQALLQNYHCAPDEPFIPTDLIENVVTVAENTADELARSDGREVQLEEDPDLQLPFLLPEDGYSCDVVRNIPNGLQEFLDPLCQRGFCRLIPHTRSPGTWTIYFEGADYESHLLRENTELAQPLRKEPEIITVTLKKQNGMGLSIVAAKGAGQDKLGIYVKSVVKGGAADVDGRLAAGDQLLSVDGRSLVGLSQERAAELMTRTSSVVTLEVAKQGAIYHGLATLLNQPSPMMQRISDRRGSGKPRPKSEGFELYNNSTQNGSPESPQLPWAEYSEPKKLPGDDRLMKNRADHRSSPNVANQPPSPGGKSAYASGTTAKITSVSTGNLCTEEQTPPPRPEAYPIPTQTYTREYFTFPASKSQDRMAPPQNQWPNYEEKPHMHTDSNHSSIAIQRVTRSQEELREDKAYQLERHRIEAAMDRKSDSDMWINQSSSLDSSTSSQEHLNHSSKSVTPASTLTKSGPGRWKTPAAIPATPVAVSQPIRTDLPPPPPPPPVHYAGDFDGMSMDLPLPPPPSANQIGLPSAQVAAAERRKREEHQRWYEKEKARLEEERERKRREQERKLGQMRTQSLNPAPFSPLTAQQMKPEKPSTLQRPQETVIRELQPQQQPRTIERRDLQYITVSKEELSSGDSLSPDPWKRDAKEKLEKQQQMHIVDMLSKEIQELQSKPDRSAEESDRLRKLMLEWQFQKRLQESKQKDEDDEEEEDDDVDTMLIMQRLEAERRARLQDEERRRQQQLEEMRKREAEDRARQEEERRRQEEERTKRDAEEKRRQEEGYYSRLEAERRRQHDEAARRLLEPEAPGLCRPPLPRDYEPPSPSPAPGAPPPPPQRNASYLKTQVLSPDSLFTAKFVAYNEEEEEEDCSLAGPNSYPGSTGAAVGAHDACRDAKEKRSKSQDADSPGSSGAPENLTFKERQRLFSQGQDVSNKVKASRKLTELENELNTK
UniProt Q9NR46: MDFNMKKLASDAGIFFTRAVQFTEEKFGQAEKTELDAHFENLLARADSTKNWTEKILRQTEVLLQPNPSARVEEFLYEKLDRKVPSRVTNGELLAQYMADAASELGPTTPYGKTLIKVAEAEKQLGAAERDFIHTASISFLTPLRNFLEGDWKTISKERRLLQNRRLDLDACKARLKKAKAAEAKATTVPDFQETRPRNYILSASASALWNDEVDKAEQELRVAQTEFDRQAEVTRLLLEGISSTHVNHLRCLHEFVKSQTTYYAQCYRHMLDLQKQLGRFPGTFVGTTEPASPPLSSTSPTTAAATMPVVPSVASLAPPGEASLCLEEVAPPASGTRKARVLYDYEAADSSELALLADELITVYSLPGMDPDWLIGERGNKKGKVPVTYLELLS
UniProt P35222, whole entry: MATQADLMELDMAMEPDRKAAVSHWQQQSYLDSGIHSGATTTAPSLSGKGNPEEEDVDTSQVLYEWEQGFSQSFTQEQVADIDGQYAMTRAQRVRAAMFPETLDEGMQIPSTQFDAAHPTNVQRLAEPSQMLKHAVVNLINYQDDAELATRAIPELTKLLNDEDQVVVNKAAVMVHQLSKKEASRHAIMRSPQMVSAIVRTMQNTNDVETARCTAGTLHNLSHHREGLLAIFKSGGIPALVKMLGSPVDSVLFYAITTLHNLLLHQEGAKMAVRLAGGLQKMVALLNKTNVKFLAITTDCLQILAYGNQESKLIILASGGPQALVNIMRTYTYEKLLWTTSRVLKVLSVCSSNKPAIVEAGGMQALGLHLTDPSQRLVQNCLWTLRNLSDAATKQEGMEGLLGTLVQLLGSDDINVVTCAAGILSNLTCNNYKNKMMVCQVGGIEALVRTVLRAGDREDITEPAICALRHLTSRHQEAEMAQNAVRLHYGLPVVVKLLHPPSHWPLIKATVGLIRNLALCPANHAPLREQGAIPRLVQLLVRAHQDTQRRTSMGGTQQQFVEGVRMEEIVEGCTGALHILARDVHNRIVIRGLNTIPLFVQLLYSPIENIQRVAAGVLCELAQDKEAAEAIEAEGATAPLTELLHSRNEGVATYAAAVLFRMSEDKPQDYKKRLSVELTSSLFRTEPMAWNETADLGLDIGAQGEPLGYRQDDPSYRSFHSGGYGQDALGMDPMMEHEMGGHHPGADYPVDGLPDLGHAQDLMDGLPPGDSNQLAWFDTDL
UniProt O15304: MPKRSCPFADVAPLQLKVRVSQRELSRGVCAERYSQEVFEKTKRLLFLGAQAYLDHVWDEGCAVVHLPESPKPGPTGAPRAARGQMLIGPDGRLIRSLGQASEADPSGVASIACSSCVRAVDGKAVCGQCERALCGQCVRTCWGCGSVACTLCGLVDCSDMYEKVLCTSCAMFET

Compound in the assay: Nc1ncnc2c1ncn2[C@@H]1O[C@H](COP(=O)(O)OP(=O)(O)NP(=O)(O)O)[C@@H](O)[C@H]1O [adenylyl imidodiphosphate]
Put plainly: NP40-soluble protein abundance relative to vehicle (solubility fold change) (ratio); higher = more soluble protein in presence of AMP-PNP. In short, it runs like this:
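In three independent experiments, Jurkat crude lysate made by Dounce homogenisation was treated for 10 min at room temperature and then 3 min at 37 °C with eight concentrations ranging from 0.1 to 10 mM. It was then solubilised with 0.8% NP40 plus benzonase for 60 min at 4 °C and ultracentrifuged. The supernatant was TMT-labelled for LC-MS/MS, and each value is the fold change against the detergent-processed vehicle for the same replicate, using vsn-normalised intensities.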

± gives the standard deviation of the averaged measurements. This is a selection; strong and weak results do not stand in their true shares.

Turning to “B0YIW6 and related entries (UniProt P48444)”, the NP40-soluble protein abundance runs as follows: (concentration: 1mM) 0.98 ± 0.015; (concentration: 2mM) 0.931 ± 0.045; (concentration: 4mM) 0.949 ± 0.01; (concentration: 6mM) 0.9391 ± 0.0089; (concentration: 8mM) 0.9554 ± 0.0037; (concentration: 10mM) 0.921 ± 0.017.
Consider “C9JG32 and related entries (UniProt P43897)”, for which the NP40-soluble protein abundance (concentration: 1mM) was found to be 0.979 ± 0.066; the NP40-soluble protein abundance (concentration: 2mM) is 1.07 ± 0.22; the NP40-soluble protein abundance (concentration: 4mM) was 1.02 ± 0.11; the NP40-soluble protein abundance (concentration: 6mM) worked out at 1.16 ± 0.21; the NP40-soluble protein abundance (concentration: 8mM) is 1.14 ± 0.14; the NP40-soluble protein abundance (concentration: 10mM) was found to be 1.24 ± 0.19.
As to “B4DDF4 and related entries (UniProt Q99439)”, the NP40-soluble protein abundance was found to be 1.02 ± 0.024 (concentration: 1mM); 1.07 ± 0.074 (concentration: 2mM); 0.999 ± 0.015 (concentration: 4mM); 1.02 ± 0.012 (concentration: 6mM); 0.979 ± 0.018 (concentration: 8mM); 0.998 ± 0.076 (concentration: 10mM).
As to “B1ANH0 and related entries (UniProt Q16774)”, the NP40-soluble protein abundance by setting is: (concentration: 1mM) 1.01 ± 0.028; (concentration: 2mM) 1.02 ± 0.032; (concentration: 4mM) 0.979 ± 0.037; (concentration: 6mM) 1.07 ± 0.071; (concentration: 8mM) 1.06 ± 0.065; (concentration: 10mM) 1.03 ± 0.079.
With “C9JBL1 and related entries (UniProt Q9Y6A9)”, the NP40-soluble protein abundance is 0.969 ± 0.013 (concentration: 1mM); 0.976 ± 0.024 (concentration: 2mM); 0.946 ± 0.045 (concentration: 4mM); 1.01 ± 0.019 (concentration: 6mM); 1.01 ± 0.028 (concentration: 8mM); 1.01 ± 0.03 (concentration: 10mM).
As for “A6NEM2 and related entries (UniProt P51610)”, the NP40-soluble protein abundance (concentration: 1mM) stood at 1.02 ± 0.028; the NP40-soluble protein abundance (concentration: 2mM) was 1.06 ± 0.028; the NP40-soluble protein abundance (concentration: 4mM) was 1.03 ± 0.015; the NP40-soluble protein abundance (concentration: 6mM) came out at 1.06 ± 0.012; the NP40-soluble protein abundance (concentration: 8mM) was 1.03 ± 0.011; the NP40-soluble protein abundance (concentration: 10mM) is 1.076 ± 0.01.
As for “A8MVZ6 and related entries (UniProt Q96G01)”, the NP40-soluble protein abundance by setting is: (concentration: 1mM) 1.01 ± 0.014; (concentration: 2mM) 1.03 ± 0.026; (concentration: 4mM) 1.02 ± 0.036; (concentration: 6mM) 0.958 ± 0.011; (concentration: 8mM) 0.955 ± 0.018; (concentration: 10mM) 0.955 ± 0.024.
On to “C9J713 and related entries (UniProt Q96IZ7)”, for which the NP40-soluble protein abundance worked out at 1.07 ± 0.027 (concentration: 1mM); 1.09 ± 0.073 (concentration: 2mM); 1.04 ± 0.053 (concentration: 4mM); 1.01 ± 0.038 (concentration: 6mM); 1.02 ± 0.043 (concentration: 8mM); 1.05 ± 0.044 (concentration: 10mM).
Consider “B1AKL4 and related entries (UniProt Q9NRA8)”, for which the NP40-soluble protein abundance by setting is: (concentration: 1mM) 1.03 ± 0.032; (concentration: 2mM) 1.05 ± 0.033; (concentration: 4mM) 1.03 ± 0.033; (concentration: 6mM) 0.995 ± 0.047; (concentration: 8mM) 0.97 ± 0.044; (concentration: 10mM) 0.982 ± 0.013.
With “A8MQ02 and related entries (UniProt P55196)”, the NP40-soluble protein abundance came out at 1.03 ± 0.015 (concentration: 1mM); 1.04 ± 0.02 (concentration: 2mM); 1.04 ± 0.035 (concentration: 4mM); 1 ± 0.018 (concentration: 6mM); 0.991 ± 0.011 (concentration: 8mM); 1.02 ± 0.027 (concentration: 10mM).
For the target “B7ZC38 and related entries (UniProt Q9NR46)”, the NP40-soluble protein abundance was determined as 0.964 ± 0.051 (concentration: 1mM); 1.02 ± 0.086 (concentration: 2mM); 0.956 ± 0.067 (concentration: 4mM); 0.953 ± 0.048 (concentration: 6mM); 0.933 ± 0.075 (concentration: 8mM); 0.916 ± 0.055 (concentration: 10mM).
In the case of “C9JBI3 and related entries (UniProt P78330)”, the NP40-soluble protein abundance runs as follows: (concentration: 1mM) 1.03 ± 0.046; (concentration: 2mM) 1.04 ± 0.048; (concentration: 4mM) 1.03 ± 0.049; (concentration: 6mM) 0.988 ± 0.017; (concentration: 8mM) 0.965 ± 0.017; (concentration: 10mM) 0.991 ± 0.036.
In the case of “D6REA0 and related entries (UniProt O75879)”, the NP40-soluble protein abundance (concentration: 1mM) came to 0.962 ± 0.026; the NP40-soluble protein abundance (concentration: 2mM) came out at 0.9665 ± 0.0091; the NP40-soluble protein abundance (concentration: 4mM) amounted to 0.968 ± 0.036; the NP40-soluble protein abundance (concentration: 6mM) turned out to be 1.03 ± 0.028; the NP40-soluble protein abundance (concentration: 8mM) came to 0.986 ± 0.038; the NP40-soluble protein abundance (concentration: 10mM) was 1.003 ± 0.0032.
In the case of “B4DGU4 and related entries (UniProt P35222)”, the NP40-soluble protein abundance reads like this: (concentration: 1mM) 1 ± 0.052; (concentration: 2mM) 0.9941 ± 0.0074; (concentration: 4mM) 0.989 ± 0.021; (concentration: 6mM) 0.981 ± 0.025; (concentration: 8mM) 0.972 ± 0.024; (concentration: 10mM) 0.966 ± 0.018.
As for “B4DTY2 and related entries (UniProt O15304)”, the NP40-soluble protein abundance is, setting by setting: (concentration: 1mM) 0.985 ± 0.0082; (concentration: 2mM) 0.999 ± 0.049; (concentration: 4mM) 0.968 ± 0.039; (concentration: 6mM) 0.958 ± 0.04; (concentration: 8mM) 0.967 ± 0.045; (concentration: 10mM) 0.972 ± 0.059.
